# Results published in PubChem BioAssay AID588590 (National Center for Advancing Translational Sciences (NCATS), 2011).
# Chains of the proteins cited; added tags and fusions are not shown. Lines headed by an entry give the natural chain unless they say otherwise; changes in a name come on top.
# UniProt Q9UNA4: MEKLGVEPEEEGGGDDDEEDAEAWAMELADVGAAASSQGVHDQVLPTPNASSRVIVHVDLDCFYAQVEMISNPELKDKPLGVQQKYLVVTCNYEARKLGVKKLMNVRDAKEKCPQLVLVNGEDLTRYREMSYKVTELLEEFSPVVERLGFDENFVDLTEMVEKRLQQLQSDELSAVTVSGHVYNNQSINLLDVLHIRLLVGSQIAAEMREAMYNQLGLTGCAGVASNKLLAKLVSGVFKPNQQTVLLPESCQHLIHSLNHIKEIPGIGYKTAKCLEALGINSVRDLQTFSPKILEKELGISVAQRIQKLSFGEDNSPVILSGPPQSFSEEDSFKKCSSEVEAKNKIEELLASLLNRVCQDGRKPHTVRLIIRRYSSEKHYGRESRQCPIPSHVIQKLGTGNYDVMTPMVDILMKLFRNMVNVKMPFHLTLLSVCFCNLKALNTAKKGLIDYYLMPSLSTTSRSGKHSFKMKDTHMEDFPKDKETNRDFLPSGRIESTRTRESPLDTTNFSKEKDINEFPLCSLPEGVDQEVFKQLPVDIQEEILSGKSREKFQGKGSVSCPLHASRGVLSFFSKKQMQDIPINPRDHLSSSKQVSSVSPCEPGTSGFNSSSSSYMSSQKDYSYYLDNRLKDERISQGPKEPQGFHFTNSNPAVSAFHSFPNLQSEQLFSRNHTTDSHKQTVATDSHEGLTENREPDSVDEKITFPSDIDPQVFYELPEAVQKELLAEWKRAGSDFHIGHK
# The whole screen tested about 390,000 compounds, of which about 4,000 (1%) were called active. Inconclusive results, whose numbers are uncertain, are shown with a selection of clear calls. Calls follow the shape of the dose curve; as a rule, active = well fitted inhibition curve with a large enough effect; inconclusive = small, poorly fitted or top-dose-only effect, or another doubt; inactive = no such curve, though single readings can be large or run the other way. A potency beside an inconclusive call is a rough fit, not a confirmed value.
# Target: DNA polymerase iota (Homo sapiens) (UniProt Q9UNA4)
# Experiment: qHTS for Inhibitors of Polymerase Iota
# Details: Pol iota fluorescent replication assay, 10 min; series mostly up to 115 µM; activity, negative = inhibition: at the top concentration
# Procedure, shortened: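 Fluorescent replication assay read twice, at 0 min and 10 min after adding 50 nM (final) substrate. Enzyme (10 nM) and compounds were first incubated 15 min at room temperature; enzyme-free buffer wells were negative controls.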
# Potency is read from the fitted curve at half-maximal effect.
Compound,Potency,"activity, negative = inhibition"
O=Nc1[nH]c(=O)c(/C=C(\O)c2ccccc2)nc1NO,active: 3.98 µM,
COc1ccccc1-c1nnc(-c2ccc(C)cc2)o1,"inconclusive: 79.4 µM [inhibitor, partial curve, poor fit]",
O=C1O[C@@H]([C@H](O)CO)C(O)=C1O,"inconclusive: 20 µM [inhibitor, single point]",
O=c1[nH]c2cc3c(cc2cc1CN(CCCO)C(=S)NCc1ccco1)OCO3,"inconclusive: 70.8 µM [inhibitor, single point]",
CCOC(=O)C1CCCN(C(=O)CSc2nnc3nc(C)cc(C)n23)C1 (stereo not given),"inconclusive: 11.2 µM [inhibitor, full curve, poor fit]",
O=C(O)C(Cc1ccccc1)N1C(=O)/C(=C/c2cccs2)SC1=S (stereo not given),"inconclusive: 14.1 µM [inhibitor, full curve, poor fit]",
O=C(CN1C(=O)CC(c2ccco2)Sc2ccccc21)NCc1ccc2c(c1)OCO2 (stereo not given),"inconclusive: 15.8 µM [inhibitor, partial curve, poor fit]",
CCOC(=O)CC(=O)CSc1[nH]c(=O)cc(C)c1C#N,"inconclusive: 20 µM [inhibitor, full curve, poor fit]",
C[C@@H](Oc1ccc(Oc2cnc3ccc(Cl)cc3n2)cc1)C(=O)O,,inactive: 6.13% [at 58.9 µM]
COc1ccccc1N1CCN(S(=O)(=O)c2ccc(-c3cnc(C4CC4)o3)cc2)CC1,"inconclusive: 79.4 µM [inhibitor, single point]",
COC(=O)c1ccc(C2c3[nH]c4ccccc4c3C[C@H]3C(=O)N(C4CC4)CC(=O)N23)cc1 (stereo not given in full),"inconclusive: 89.1 µM [inhibitor, single point]",
Cc1ccc(N2CCN(CC(O)COc3cccc4ccccc34)CC2)cc1 (stereo not given),"inconclusive: 44.7 µM [inhibitor, partial curve, poor fit]",
Cc1ccc(CNC(=O)CSC2=Nc3ccccc3C3=NC(C)C(=O)N23)cc1 (stereo not given),,inactive: -0.464%
Cc1ccc2occ(CC(=O)N3CCN(c4cccc(Cl)c4)CC3)c2c1,"inconclusive: 50.1 µM [inhibitor, partial curve, poor fit]",
COc1ccc(N/C=C2\CCc3ccccc3C2=O)cc1,,inactive: 9.31%
COc1ccccc1NC(=O)C1CCN(S(=O)(=O)c2ccc3c(c2)NC(=O)C(C)S3)CC1 (stereo not given),"inconclusive: 79.4 µM [inhibitor, single point]",
CCN(CC(=O)Nc1ccc(NC(C)=O)cc1)Cc1c(O)ccc2cc(Br)ccc12,,inactive: 44.6%
CCOC(=O)Cc1ccc(NC(=O)c2ccc(C(C)(C)C)cc2)cc1,"inconclusive: 7.94 µM [inhibitor, single point]",
CCS(=O)(=O)N1CCc2cc(C(=O)Nc3ccc(OC)cc3OC)ccc21,,inactive: 14%
CCN(CC)S(=O)(=O)c1ccc(F)cc1,"inconclusive: 100 µM [inhibitor, single point]",

# Part of the list above, as tab-separated lines:
Compound	Potency	activity, negative = inhibition
O=C1O[C@@H]([C@H](O)CO)C(O)=C1O	inconclusive: 20 µM [inhibitor, single point]	
O=c1[nH]c2cc3c(cc2cc1CN(CCCO)C(=S)NCc1ccco1)OCO3	inconclusive: 70.8 µM [inhibitor, single point]	

# Further entries follow:

Compound,Potency,"activity, negative = inhibition"
COc1cc2c(=O)c(S(=O)(=O)c3ccccc3)cn(CC(=O)Nc3ccccc3C)c2cc1OC,"inconclusive: 70.8 µM [inhibitor, single point]",
Cc1sc(NC(=S)NC(=O)C(C)(C)C)c(C(N)=O)c1C,"inconclusive: 22.4 µM [inhibitor, single point]",
O=C(N/N=C/C=C\c1ccccc1[N+](=O)[O-])c1cc(-c2ccc3ccccc3c2)n[nH]1,"inconclusive: 12.6 µM [inhibitor, partial curve, poor fit]",
Cc1ccc(NC(=O)C(C)OC(=O)c2nc(Cl)ccc2Cl)cc1S(=O)(=O)N1CCOCC1 (stereo not given),"inconclusive: 56.2 µM [inhibitor, partial curve, poor fit]",
CCc1nnc(NC(=O)CN2CC(C)OC(C)C2)s1 (stereo not given),"inconclusive: 25.1 µM [inhibitor, single point]",
CCn1cc(C(=O)NCc2ccc(F)cc2)c(=O)c2cc(S(=O)(=O)N(C)C)ccc21,"inconclusive: 89.1 µM [inhibitor, single point]",
Cc1ccccc1NC(=O)CSc1nnc(-c2ccco2)c(-c2ccco2)n1,active: 10 µM,
COc1cccc(C(C(=O)NCc2ccccc2)N(C(=O)Cn2nnc3ccccc32)c2cccc(C(C)=O)c2)c1 (stereo not given),,inactive: -12.3%
Cc1ccc(S(=O)(=O)NNC(=O)CCC(=O)Nc2ccccc2)cc1,"inconclusive: 89.1 µM [inhibitor, single point]",
Cc1ccsc1C(=O)N(CC(C)C)c1c(N)n(Cc2ccccc2)c(=O)[nH]c1=O,"inconclusive: 89.1 µM [inhibitor, single point]",
CC(C)(C)OC(=O)N1CCC2(CC1)Oc1ccc(F)cc1C(=O)C21CC(c2ccccc2)=NO1 (stereo not given),"inconclusive: 17.8 µM [inhibitor, partial curve, poor fit]",
Cc1cc(NC(=O)CN2CCN(c3ncccn3)CC2)no1,,inactive: 9.37%
CC(=O)N(CCCN(C)C)CCC(C)CCC=C(C)C (stereo not given),"inconclusive: 89.1 µM [inhibitor, single point]",
COc1ccc(/C=C2\C(=O)N(c3c(Cl)cc(Cl)cc3Cl)N=C2NC(=O)c2cccc([N+](=O)[O-])c2)cc1,"inconclusive: 35.5 µM [inhibitor, single point]",
CCOc1ccccc1C(C(=O)NC1CCCC1)N(C(=O)c1csnn1)C1CC1 (stereo not given),,inactive: 40.6%
O=C(/C=C/c1cccc(F)c1)OCC(=O)c1ccc[nH]1,"inconclusive: 39.8 µM [inhibitor, partial curve]",
CCOc1cc(C(c2c(C)[nH][nH]c2=O)c2c(C)[nH][nH]c2=O)cc([N+](=O)[O-])c1O,"inconclusive: 10 µM [inhibitor, full curve, poor fit]",
Cc1cccc(N2CCN(CC(O)COc3ccccc3Cl)CC2)c1 (stereo not given),"inconclusive: 44.7 µM [inhibitor, partial curve, poor fit]",
Cc1cc(NC2=CC(=O)C(=O)c3ccccc32)no1,"inconclusive: 17.8 µM [inhibitor, full curve, poor fit]",
C=CCn1c(-c2cccnc2Cl)nc2ccccc21,"inconclusive: 79.4 µM [inhibitor, single point]",
